The other results are listed elsewhere or left out.

The chains behind the UniProt entries cited, without tags or fusion partners.
UniProt Q0JBA9, entry or part of it: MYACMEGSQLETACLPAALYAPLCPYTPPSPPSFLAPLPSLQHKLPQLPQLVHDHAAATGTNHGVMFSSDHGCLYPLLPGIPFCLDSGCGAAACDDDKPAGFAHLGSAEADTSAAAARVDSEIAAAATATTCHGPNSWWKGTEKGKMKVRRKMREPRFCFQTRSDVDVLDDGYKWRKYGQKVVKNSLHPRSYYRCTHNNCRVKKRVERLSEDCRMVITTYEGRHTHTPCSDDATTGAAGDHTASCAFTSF

This assay deals with OsWRKY34 (Oryza sativa, UniProt Q0JBA9 1-250). Put plainly: protein-binding microarray (RPBM); PBS, 2% BSA, 51.3 ng/ul salmon testes DNA, 50 uM zinc acetate, 200 nM TF, 25 C, 1 h; high values mean tight binding. The conditions noted are these: protein: recombinant; tags: N-terminal polyhistidine and DsRed monomer fusion (pET32a); label: CyDye5-dUTP incorporated in the synthesized complementary strand; 3' TTTTT single-stranded linker to array surface; dsDNA, one strand shown. The method, boiled down: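 An Axon 4000B scanner gave the binding signal as per-feature fluorescence intensity in arbitrary units. This followed washing of a custom Agilent array that had been incubated for 1 h at 25 °C with 200 nM protein in PBS, 2% BSA, salmon testes DNA and 50 µM zinc acetate. The proteins were transcription factors fused at the N-terminus to polyhistidine and DsRed, expressed in E. coli BL21-CodonPlus and purified on Ni–NTA.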
As for “CCTTTGTCTCGTCCTTTCTCACACACTTGCTGGTTATTAACGGAGTCACCTAGTGCAG”, the binding signal is 9540 fluorescence intensity (a.u.). The figure for “TGATTAGGTTGATGAGATAGGGGTGGTAAAGCATGTTTTTCGGAGTCACCTAGTGCAG” is 8070 fluorescence intensity (a.u.); for “ATAATGTGATTGCCGGTGTTGTATCTATATCCGGAGGCTCCGGAGTCACCTAGTGCAG” it is 9250 fluorescence intensity (a.u.). “GCGGGCGGACGGGCGAGGCGCGGGCGGGCTGGGAAGCGGCCGGAGTCACCTAGTGCAG”: the binding signal is 9250 fluorescence intensity (a.u.). In the case of “ACACCGTCTTCCTCGGCTTCGTCTACAACCACGCGCCGCCCGGAGTCACCTAGTGCAG” it was 10700 fluorescence intensity (a.u.); in that of “CAACGACTGCCGCAATCGCGTCACCATCATCGTCCTGCGCCGGAGTCACCTAGTGCAG”, 9100 fluorescence intensity (a.u.).

“CTCTCACCACTATGTACACTTGATCGTCATTTGCCACAAGCGGAGTCACCTAGTGCAG”: the binding signal is 11300 fluorescence intensity (a.u.). In the case of “CTATATATGTGACGCTGACGTTCCTCATCTCCCAAGCTGCCGGAGTCACCTAGTGCAG” it was 8480 fluorescence intensity (a.u.); in that of “TCCAAGGTGAGATCTTTGCCTCTTGCATTTCTATTTTTCCCGGAGTCACCTAGTGCAG”, 8500 fluorescence intensity (a.u.); in that of “TTTTTCTCGTCACACCTTTGTAAATCGTAAGTACTTGTCCCGGAGTCACCTAGTGCAG”, 9280 fluorescence intensity (a.u.). With “CTCTGTGCCCAGTTGATCTCTTCTTCATTTGGTTTTCATACGGAGTCACCTAGTGCAG”, the binding signal is 10500 fluorescence intensity (a.u.).

As to “CAGTTACATCCTATCCGCTGTCCATTATCATCCGGCGGTTCGGAGTCACCTAGTGCAG”, the binding signal was 8540 fluorescence intensity (a.u.). In the case of “TCTCCTCGCTCGTCGTCGTTGCCGGCAAACGCGCACTCAACGGAGTCACCTAGTGCAG” it was 8890 fluorescence intensity (a.u.). As to “TTTTTCTCATCTCTTTCGTGTCATTTTAAATTTTACTTTTCGGAGTCACCTAGTGCAG”, the binding signal was 13900 fluorescence intensity (a.u.). Turning to “AACTGTGTGGTTGTCAAATGGCAATGCTGTTTTTTTTCTCCGGAGTCACCTAGTGCAG”, the binding signal was 8470 fluorescence intensity (a.u.). Turning to “GTTCTTGCTTCCTGTGGTAGCTTGTTTGTTGTTCTACTTACGGAGTCACCTAGTGCAG”, the binding signal is 12700 fluorescence intensity (a.u.).

For “GCACGTGTCTTCCCCTGTTGCGCGTCTCCCTCTCACGCCTCGGAGTCACCTAGTGCAG”, the binding signal is 9510 fluorescence intensity (a.u.). In the case of “GGAGCTGACGCCGCCGCCACCACCACCACCACGACGCCAACGGAGTCACCTAGTGCAG” it was 11100 fluorescence intensity (a.u.). For the sequence “TGCTGTAATTTTGTTCTTGAGCTGTAGCCTGTCTCTCCTGCGGAGTCACCTAGTGCAG”, the binding signal is 10800 fluorescence intensity (a.u.).

Consider “ATTCACCGCACAACACCACACTCGCGGACTCGCCCATATGCGGAGTCACCTAGTGCAG”, for which the binding signal is 9590 fluorescence intensity (a.u.). In the case of “AAGAAACGGGTGTGGTGTGAGGCGGGCAGTTTGGGTGGATCGGAGTCACCTAGTGCAG” it was 8230 fluorescence intensity (a.u.); in that of “TTCTTTTGCTCCGGCTTCTCAAACGTCTCCGCCTTGACCGCGGAGTCACCTAGTGCAG”, 8140 fluorescence intensity (a.u.); in that of “GGATCTTTATGTCGTTTCTGGTGTTTCTTATATTTTATTTCGGAGTCACCTAGTGCAG”, 11400 fluorescence intensity (a.u.). Regarding “GCGCCCATCCCCTCCTGCTCCGCATCGACTCCATCACACGCGGAGTCACCTAGTGCAG”, the binding signal was 10100 fluorescence intensity (a.u.). The figure for “ATCCATCGGAAACCTCGATACCATATTTGTATTTCTATCCCGGAGTCACCTAGTGCAG” is 12000 fluorescence intensity (a.u.); for “TCCACCACAATTAACGTGTATATTATTTTTCCTGTTTTCACGGAGTCACCTAGTGCAG” it is 9370 fluorescence intensity (a.u.); for “TGAATTTCGCTTATGTACATACGTTGCTTTTACCACTAAACGGAGTCACCTAGTGCAG” it is 9500 fluorescence intensity (a.u.). The figure for “TGTGGAATTTTTTTCATTTTTAAATTTATCTTTTTTAACACGGAGTCACCTAGTGCAG” is 8380 fluorescence intensity (a.u.). For the sequence “CCTTAGTATTGTCTTGGGCTGGGCCTTTGCTGTCGTCTGTCGGAGTCACCTAGTGCAG”, the binding signal is 11200 fluorescence intensity (a.u.). The figure for “GGGGTGGTCTTGTCCTCTACAGGCTCTCCTCCAATCCAACCGGAGTCACCTAGTGCAG” is 15000 fluorescence intensity (a.u.). Take “TGATGTTGACTAAATTAAGGTGACTATCACCTCCACTATACGGAGTCACCTAGTGCAG”: the binding signal was 8960 fluorescence intensity (a.u.). Regarding “GCTGCTGTACTACCCAGGTTGATGCCATGCCACTCCTATACGGAGTCACCTAGTGCAG”, the binding signal was 8140 fluorescence intensity (a.u.).

On to “ATCCCTAGGTAAACCACCACCAGCACCACCATGGCTCTAACGGAGTCACCTAGTGCAG”, for which the binding signal was 11300 fluorescence intensity (a.u.).

Take “CCACCCATCTCGGCCGGAATCTCCTCCACCACGCCGTCCTCGGAGTCACCTAGTGCAG”: the binding signal was 8350 fluorescence intensity (a.u.). The figure for “GGGGACACAAATTATGTCGTAGGATGCAATGTTATTTTTTCGGAGTCACCTAGTGCAG” is 8460 fluorescence intensity (a.u.); for “TCACTTATTAACTGCTTCAGTCTCAATGTCTTGTAAGTTACGGAGTCACCTAGTGCAG” it is 9080 fluorescence intensity (a.u.); for “TTGCTCTCACATTTCGTGCACTACATCTTCTCGGTGGTCCCGGAGTCACCTAGTGCAG” it is 8380 fluorescence intensity (a.u.). Consider “AGTAGTATGATATTTACTTCAATTTCTTTTAGGGCTTGTTCGGAGTCACCTAGTGCAG”, for which the binding signal was 9940 fluorescence intensity (a.u.).

“TGCACCGATTTTTCTCGATATCATTCCATACGCGACCGCACGGAGTCACCTAGTGCAG”: the binding signal was 8210 fluorescence intensity (a.u.).

In the case of “CTTTGGCTTCTAGGTTGTATTGGGGTGTAACATTTGCGATCGGAGTCACCTAGTGCAG”, the binding signal is 9860 fluorescence intensity (a.u.). Consider “ATTACTCAAGCAATCATGTTCATGACAAATACCATCGCCACGGAGTCACCTAGTGCAG”, for which the binding signal is 8860 fluorescence intensity (a.u.). As for “GGGTGGTCCTGCTTCTACCTTGTATACAAAACATTTCTTCCGGAGTCACCTAGTGCAG”, the binding signal was 17000 fluorescence intensity (a.u.).

In the case of “TCAGAACCAACCGCTTCCCTTTTACTGTCACTGGCTGTTGCGGAGTCACCTAGTGCAG”, the binding signal is 9650 fluorescence intensity (a.u.). In the case of “TTAGATAATGGGTTAGGAGGGATGGGATTGGGACAAAGATCGGAGTCACCTAGTGCAG” it was 11600 fluorescence intensity (a.u.); in that of “TTTGACGTCATCGTATCTAAAGCTATTCCGTTCGTTATCCCGGAGTCACCTAGTGCAG”, 9260 fluorescence intensity (a.u.); in that of “CTCATTTCGATTTGTATCGGTGCGGCGCGGAGCGAGTCCCCGGAGTCACCTAGTGCAG”, 8670 fluorescence intensity (a.u.). Regarding “GACTTTGGCTCGACACATGACTGCTTGACTGCTTGTTTTTCGGAGTCACCTAGTGCAG”, the binding signal was 9970 fluorescence intensity (a.u.).

“TTCCATGGCATCCATGTCAACGTCATATCATTTGATTGTACGGAGTCACCTAGTGCAG”: the binding signal is 8130 fluorescence intensity (a.u.). In the case of “GTGAAACCCCTCTATCCTTCGGTGTTTGCCTTCAACTTTCCGGAGTCACCTAGTGCAG” it was 9980 fluorescence intensity (a.u.); in that of “TTTAGAAATTGAGTTTTTGGGTGGAGGGAGTATACAGGAACGGAGTCACCTAGTGCAG”, 8960 fluorescence intensity (a.u.); in that of “GCATCTCCGTCTCGCTGCATTGACCTGTCGCCGTTTGTACCGGAGTCACCTAGTGCAG”, 10100 fluorescence intensity (a.u.). The figure for “ATGGTTCGTGCGGACTCGGCGTCGGTGAGGTGGGCGGGCTCGGAGTCACCTAGTGCAG” is 8490 fluorescence intensity (a.u.); for “TACATGCCATCTCCATCAGATTCCATCGACCATTGGGACCCGGAGTCACCTAGTGCAG” it is 8700 fluorescence intensity (a.u.); for “AGCTAGATGTCTCTTTTTGTTTGACTTTGCCTCTCTTGATCGGAGTCACCTAGTGCAG” it is 9280 fluorescence intensity (a.u.).

The values above are taken from publication PMC7819943, “Rice protein-binding microarrays: a tool to detect cis-acting elements near promoter regions in rice”.
